The series relates to T1, SNAP-hA1AR.
T1 construct: expressed in transfected cells; host or cells: HEK293T, transient transfection (FuGENE HD)
The series can be described thus: Fluorescence correlation spectroscopy on SNAP-hA1AR HEK293T cell membranes. In kind it is cell-based, human. Particulars: 100 nM 90 min, apical membrane.

Each structure is given as a SMILES string.

As for `CCCCn1c(=O)c2[nH]c(C34CCC(C(=O)NCCNC(=O)CCNC(=O)c5ccc(OC(=O)CCCCC[N+]6=C(/C=C/C=C/C=C7/N(C)c8ccc(S(=O)(=O)O)cc8C7(C)C)C(C)(C)c7cc(S(=O)(=O)[O-])ccc76)c(F)c5)(CC3)CC4)nc2n(CCCC)c1=O` [Compound 11, 1-(6-(4-((3-((2-(4-(1,3-Dibutyl-2,6-dioxo-2,3,6,7-tetrahydro-1H-purin-8-yl)bicyclo[2.2.2]octane-1-carboxamido)ethyl)amino)-3-oxopropyl)carbamoyl)-2-fluorophenoxy)-6-oxohexyl)-3,3-dimethyl-2-((1E,3E)-5-((E)-1,3,3-trimethyl-5-sulfoindolin-2-ylidene)penta-1,3-dien-1-yl)-3H-indol-1-ium-5-sulfonate], the “diffusion coefficient of SulfoCy5-A1AR” value is given as 0.29 ± 0.01 μm^2/s and the “slower 2D component dwell time (SulfoCy5 bound A1AR)” value came to 55.4 ± 1.93 ms.

The record behind these values is publication PMC11284787, “Ligand-Directed Labeling of the Adenosine A1 Receptor in Living Cells” (Journal of Medicinal Chemistry, 2024).
